Data as given in paper PMC11574364.
The exact form of at least one protein or probe is not confirmed. For part of these data: Tags and fusion partners may be left off the protein sequences shown.

Protein sequences, listed by entry. Tags and fused reporters are not part of them. Lines headed by an entry give the natural chain unless they say otherwise; changes in a name come on top.
UniProt Q9NYA1, whole entry: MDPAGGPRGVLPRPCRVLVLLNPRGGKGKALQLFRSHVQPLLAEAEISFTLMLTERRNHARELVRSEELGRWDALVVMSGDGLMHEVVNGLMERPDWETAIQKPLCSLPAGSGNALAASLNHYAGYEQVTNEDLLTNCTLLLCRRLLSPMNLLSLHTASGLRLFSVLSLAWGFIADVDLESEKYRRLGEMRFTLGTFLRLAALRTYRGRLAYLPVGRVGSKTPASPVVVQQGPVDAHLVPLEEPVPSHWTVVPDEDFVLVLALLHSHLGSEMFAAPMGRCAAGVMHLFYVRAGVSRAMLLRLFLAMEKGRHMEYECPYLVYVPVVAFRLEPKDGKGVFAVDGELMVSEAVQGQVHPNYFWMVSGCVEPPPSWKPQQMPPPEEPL
UniProt Q15833: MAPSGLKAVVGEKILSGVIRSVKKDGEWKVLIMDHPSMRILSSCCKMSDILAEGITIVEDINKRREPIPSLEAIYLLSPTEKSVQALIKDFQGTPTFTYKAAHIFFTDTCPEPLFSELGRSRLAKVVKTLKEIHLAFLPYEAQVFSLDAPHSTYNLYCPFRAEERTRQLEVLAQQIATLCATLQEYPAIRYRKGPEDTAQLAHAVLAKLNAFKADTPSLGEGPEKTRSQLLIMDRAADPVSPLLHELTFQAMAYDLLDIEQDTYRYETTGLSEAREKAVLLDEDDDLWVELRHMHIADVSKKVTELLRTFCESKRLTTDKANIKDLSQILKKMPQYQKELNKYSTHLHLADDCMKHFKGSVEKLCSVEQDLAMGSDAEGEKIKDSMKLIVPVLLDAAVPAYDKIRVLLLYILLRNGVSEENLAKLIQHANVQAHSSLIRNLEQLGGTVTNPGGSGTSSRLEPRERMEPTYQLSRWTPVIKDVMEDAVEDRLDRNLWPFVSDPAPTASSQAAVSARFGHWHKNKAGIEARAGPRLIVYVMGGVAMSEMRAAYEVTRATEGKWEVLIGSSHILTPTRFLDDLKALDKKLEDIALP
UniProt P57789: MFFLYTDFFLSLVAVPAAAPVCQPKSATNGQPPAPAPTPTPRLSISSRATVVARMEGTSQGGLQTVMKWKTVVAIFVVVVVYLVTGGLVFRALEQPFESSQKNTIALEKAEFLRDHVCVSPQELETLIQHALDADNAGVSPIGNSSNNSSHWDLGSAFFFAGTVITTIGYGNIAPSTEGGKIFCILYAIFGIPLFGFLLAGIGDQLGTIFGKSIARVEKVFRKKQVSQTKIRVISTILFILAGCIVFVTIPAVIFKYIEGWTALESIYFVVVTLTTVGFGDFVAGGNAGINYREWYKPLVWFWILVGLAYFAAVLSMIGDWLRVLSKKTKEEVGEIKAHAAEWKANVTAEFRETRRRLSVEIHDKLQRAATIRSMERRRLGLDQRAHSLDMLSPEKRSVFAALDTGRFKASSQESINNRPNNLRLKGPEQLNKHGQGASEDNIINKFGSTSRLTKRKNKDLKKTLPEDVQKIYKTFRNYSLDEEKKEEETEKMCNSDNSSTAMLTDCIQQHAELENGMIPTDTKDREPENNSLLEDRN

Key:
Test in all cases: human ORF protein microarray
CRABP2 (Homo sapiens) = target: T1, CRABP2 (Homo sapiens) (UniProt P29373); conditions: 5' phosphate; Domain array: 20 mM Tris-HCl pH 7.4, 200 mM KCl, 0.2 mM EDTA, 0.05% NP40, 2 ug/ul heparin, overnight 4 C. ORF array: PBS pH 7.0 with RNase inhibitor, 100 ng RNA, 1 h.; recombinant protein; protein details: N-terminal GST-6xHis; label: internal DY647 at G18; letters put together from the description
T1 sequence (looked up, limits assumed): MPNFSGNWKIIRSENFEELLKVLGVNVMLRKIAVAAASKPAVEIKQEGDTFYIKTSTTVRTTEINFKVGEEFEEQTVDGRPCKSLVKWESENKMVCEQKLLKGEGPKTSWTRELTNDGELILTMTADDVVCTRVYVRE

SLC6A13 (Homo sapiens) = target: T2, SLC6A13 (Homo sapiens) (UniProt Q9NSD5); conditions: 5' phosphate; Domain array: 20 mM Tris-HCl pH 7.4, 200 mM KCl, 0.2 mM EDTA, 0.05% NP40, 2 ug/ul heparin, overnight 4 C. ORF array: PBS pH 7.0 with RNase inhibitor, 100 ng RNA, 1 h.; recombinant protein; protein details: N-terminal GST-6xHis; label: internal DY647 at G18; letters put together from the description
T2 sequence (looked up, limits assumed): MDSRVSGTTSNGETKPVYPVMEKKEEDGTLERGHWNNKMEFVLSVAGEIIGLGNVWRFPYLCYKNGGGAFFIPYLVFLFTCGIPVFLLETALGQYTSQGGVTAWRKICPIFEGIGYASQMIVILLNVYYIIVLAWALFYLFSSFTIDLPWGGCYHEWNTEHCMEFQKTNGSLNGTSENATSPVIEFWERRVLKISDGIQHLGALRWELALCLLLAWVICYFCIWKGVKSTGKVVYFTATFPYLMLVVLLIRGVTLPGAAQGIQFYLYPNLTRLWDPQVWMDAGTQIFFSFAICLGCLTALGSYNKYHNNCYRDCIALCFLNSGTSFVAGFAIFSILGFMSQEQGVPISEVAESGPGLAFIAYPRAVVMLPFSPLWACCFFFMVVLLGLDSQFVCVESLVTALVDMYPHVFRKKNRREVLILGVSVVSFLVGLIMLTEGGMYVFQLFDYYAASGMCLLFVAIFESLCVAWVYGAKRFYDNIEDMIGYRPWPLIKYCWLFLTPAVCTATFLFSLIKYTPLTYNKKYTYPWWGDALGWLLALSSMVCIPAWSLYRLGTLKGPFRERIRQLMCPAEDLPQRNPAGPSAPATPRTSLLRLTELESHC

ZNF165 (Homo sapiens) = target: T3, ZNF165 (Homo sapiens) (UniProt P49910); conditions: 5' phosphate; Domain array: 20 mM Tris-HCl pH 7.4, 200 mM KCl, 0.2 mM EDTA, 0.05% NP40, 2 ug/ul heparin, overnight 4 C. ORF array: PBS pH 7.0 with RNase inhibitor, 100 ng RNA, 1 h.; recombinant protein; protein details: N-terminal GST-6xHis; label: internal DY647 at G18; letters put together from the description
T3 sequence (looked up, limits assumed): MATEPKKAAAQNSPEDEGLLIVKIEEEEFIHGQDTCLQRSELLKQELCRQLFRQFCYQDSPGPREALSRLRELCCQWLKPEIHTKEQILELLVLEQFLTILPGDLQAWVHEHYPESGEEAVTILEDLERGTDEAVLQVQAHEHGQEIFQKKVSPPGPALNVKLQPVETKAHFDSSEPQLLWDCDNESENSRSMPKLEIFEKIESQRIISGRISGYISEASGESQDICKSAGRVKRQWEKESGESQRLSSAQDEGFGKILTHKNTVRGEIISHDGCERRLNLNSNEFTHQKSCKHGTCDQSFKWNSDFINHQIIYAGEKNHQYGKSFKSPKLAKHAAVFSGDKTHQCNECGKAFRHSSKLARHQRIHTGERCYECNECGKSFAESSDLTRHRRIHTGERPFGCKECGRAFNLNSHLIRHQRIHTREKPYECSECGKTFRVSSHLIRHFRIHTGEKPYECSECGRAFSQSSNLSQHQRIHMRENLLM

SPHK1 (Homo sapiens) = SPHK1 (Homo sapiens) (UniProt Q9NYA1); conditions: 5' phosphate; Domain array: 20 mM Tris-HCl pH 7.4, 200 mM KCl, 0.2 mM EDTA, 0.05% NP40, 2 ug/ul heparin, overnight 4 C. ORF array: PBS pH 7.0 with RNase inhibitor, 100 ng RNA, 1 h.; recombinant protein; protein details: N-terminal GST-6xHis; label: internal DY647 at G18; letters put together from the description
STXBP2 (Homo sapiens) = STXBP2 (Homo sapiens) (UniProt Q15833); conditions: 5' phosphate; amino-C6 U at position 18; Domain array: 20 mM Tris-HCl pH 7.4, 200 mM KCl, 0.2 mM EDTA, 0.05% NP40, 2 ug/ul heparin, overnight 4 C. ORF array: PBS pH 7.0 with RNase inhibitor, 100 ng RNA, 1 h.; recombinant protein; protein details: N-terminal GST-6xHis; label: internal Cy5 or DY647
GAL (Homo sapiens) = target: T4, GAL (Homo sapiens) (UniProt P22466); conditions: 5' phosphate; amino-C6 U at position 18; Domain array: 20 mM Tris-HCl pH 7.4, 200 mM KCl, 0.2 mM EDTA, 0.05% NP40, 2 ug/ul heparin, overnight 4 C. ORF array: PBS pH 7.0 with RNase inhibitor, 100 ng RNA, 1 h.; recombinant protein; protein details: N-terminal GST-6xHis; label: internal Cy5 or DY647
T4 sequence (looked up, limits assumed): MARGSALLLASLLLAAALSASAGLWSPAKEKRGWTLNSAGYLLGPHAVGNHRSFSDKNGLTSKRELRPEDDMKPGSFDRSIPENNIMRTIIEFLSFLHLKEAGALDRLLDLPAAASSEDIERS

KCNK10 (Homo sapiens) = KCNK10 (Homo sapiens) (UniProt P57789); conditions: 5' phosphate; amino-C6 U at position 18; Domain array: 20 mM Tris-HCl pH 7.4, 200 mM KCl, 0.2 mM EDTA, 0.05% NP40, 2 ug/ul heparin, overnight 4 C. ORF array: PBS pH 7.0 with RNase inhibitor, 100 ng RNA, 1 h.; recombinant protein; protein details: N-terminal GST-6xHis; label: internal Cy5 or DY647
CNN3 (Homo sapiens) = target: T5, CNN3 (Homo sapiens) (UniProt Q15417); conditions: 5' phosphate; amino-C6 U at position 18; Domain array: 20 mM Tris-HCl pH 7.4, 200 mM KCl, 0.2 mM EDTA, 0.05% NP40, 2 ug/ul heparin, overnight 4 C. ORF array: PBS pH 7.0 with RNase inhibitor, 100 ng RNA, 1 h.; recombinant protein; protein details: N-terminal GST-6xHis; label: internal Cy5 or DY647
T5 sequence (looked up, limits assumed): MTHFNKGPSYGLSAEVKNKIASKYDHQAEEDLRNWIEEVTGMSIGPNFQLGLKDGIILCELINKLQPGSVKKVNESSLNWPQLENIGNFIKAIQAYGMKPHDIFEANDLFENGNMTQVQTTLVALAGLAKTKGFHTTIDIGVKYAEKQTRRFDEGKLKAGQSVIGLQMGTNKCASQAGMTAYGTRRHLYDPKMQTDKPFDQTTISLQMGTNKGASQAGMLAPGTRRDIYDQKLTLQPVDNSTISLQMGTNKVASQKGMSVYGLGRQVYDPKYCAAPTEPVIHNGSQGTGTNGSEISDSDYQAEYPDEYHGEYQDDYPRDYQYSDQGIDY

SLC9A6 (Homo sapiens) = target: T6, SLC9A6 (Homo sapiens) (UniProt Q92581); conditions: 5' phosphate; amino-C6 U at position 18; Domain array: 20 mM Tris-HCl pH 7.4, 200 mM KCl, 0.2 mM EDTA, 0.05% NP40, 2 ug/ul heparin, overnight 4 C. ORF array: PBS pH 7.0 with RNase inhibitor, 100 ng RNA, 1 h.; recombinant protein; protein details: N-terminal GST-6xHis; label: internal Cy5 or DY647
T6 sequence (looked up, limits assumed): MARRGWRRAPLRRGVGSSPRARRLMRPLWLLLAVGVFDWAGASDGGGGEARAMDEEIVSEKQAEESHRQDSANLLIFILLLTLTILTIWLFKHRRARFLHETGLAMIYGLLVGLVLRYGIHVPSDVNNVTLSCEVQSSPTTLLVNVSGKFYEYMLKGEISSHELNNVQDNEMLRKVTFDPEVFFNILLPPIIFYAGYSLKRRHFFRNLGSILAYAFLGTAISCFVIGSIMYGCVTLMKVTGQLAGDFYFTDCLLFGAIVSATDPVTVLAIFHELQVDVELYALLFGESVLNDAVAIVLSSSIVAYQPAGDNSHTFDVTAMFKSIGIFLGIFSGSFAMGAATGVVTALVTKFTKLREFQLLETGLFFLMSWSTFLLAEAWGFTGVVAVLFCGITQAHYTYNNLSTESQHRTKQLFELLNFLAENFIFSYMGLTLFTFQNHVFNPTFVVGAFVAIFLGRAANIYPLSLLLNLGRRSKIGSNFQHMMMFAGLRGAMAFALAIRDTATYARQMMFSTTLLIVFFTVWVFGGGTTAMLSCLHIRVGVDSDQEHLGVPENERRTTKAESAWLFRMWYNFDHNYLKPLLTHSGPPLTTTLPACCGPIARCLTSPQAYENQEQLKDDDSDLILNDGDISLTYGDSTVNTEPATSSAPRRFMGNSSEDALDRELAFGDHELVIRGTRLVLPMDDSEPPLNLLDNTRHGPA

Measured: binding result

CAGUGCAAUGAUGAAAGGGCAU [miR-130b (internal labeling)]
binds: CRABP2 (Homo sapiens) | SLC6A13 (Homo sapiens) | ZNF165 (Homo sapiens)

UAGCUUAUCAGACUGAUGUUGA [miR-21 (internal labeling)]
binds: SPHK1 (Homo sapiens)

UGAGGUAGUAGGUUGUGUGGUU [let-7b (internal labeling)]
binds: STXBP2 (Homo sapiens) | GAL (Homo sapiens) | KCNK10 (Homo sapiens) | CNN3 (Homo sapiens) | SLC9A6 (Homo sapiens)
